# Measurements taken from the supplement of paper PMC8728848.
# The list shows a part of the results.
# Experiments:
# Assay in all cases: glycan array binding signal (z-score within array); higher = stronger binding
# Settings in all cases: glycan notation: IUPAC condensed, linker removed
# [1] = target: Neu5Ac(a2-6)Gal(b1-4)GlcNAc(b1-2)Man(a1-3)[GlcNAc(b1-4)][Neu5Ac(a2-6)Gal(b1-4)GlcNAc(b1-2)Man(a1-6)]Man(b1-4)GlcNAc(b1-4)GlcNAc
# How it was run: (§1)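 The Consortium for Functional Glycomics database supplied 3228 glycan arrays, of which those lacking an available protein sequence were dropped. The binding signal, a within-array Z-score, was averaged across arrays of the same protein sequence and across linkers. Negative scores can be read as non-binding.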
# [2] = target: Neu5Ac(a2-6)Gal(b1-4)GlcNAc(b1-2)Man(a1-3)[Man(a1-6)]Man(b1-4)GlcNAc(b1-4)GlcNAc
# How it was run: as §1
# [3] = target: Neu5Ac(a2-6)Gal(b1-4)GlcNAc(b1-2)Man(a1-3)[Neu5Ac(a2-3)Gal(b1-4)GlcNAc(b1-2)Man(a1-6)]Man(b1-4)GlcNAc(b1-4)GlcNAc
# How it was run: as §1
# [4] = target: Neu5Ac(a2-6)Gal(b1-4)GlcNAc(b1-2)Man(a1-3)[Neu5Ac(a2-6)Gal(b1-4)GlcNAc(b1-2)Man(a1-6)]Man(b1-4)GlcNAc(b1-4)GlcNAc
# How it was run: as §1
# [5] = target: Neu5Ac(a2-6)Gal(b1-4)GlcNAc(b1-2)Man(a1-3)[Neu5Ac(a2-6)Gal(b1-4)GlcNAc(b1-2)Man(a1-6)]Man(b1-4)GlcNAc(b1-4)[Fuc(a1-6)]GlcNAc
# How it was run: as §1
# [6] = target: Neu5Ac(a2-6)Gal(b1-4)GlcNAc(b1-2)Man(a1-6)Man(b1-4)GlcNAc(b1-4)GlcNAc
# How it was run: as §1
# [7] = target: Neu5Ac(a2-6)Gal(b1-4)GlcNAc(b1-2)Man(a1-6)[Gal(b1-4)GlcNAc(b1-2)Man(a1-3)]Man(b1-4)GlcNAc(b1-4)GlcNAc
# How it was run: as §1
# [8] = target: Neu5Ac(a2-6)Gal(b1-4)GlcNAc(b1-2)Man(a1-6)[GlcNAc(b1-2)Man(a1-3)]Man(b1-4)GlcNAc(b1-4)GlcNAc
# How it was run: as §1
# [9] = target: Neu5Ac(a2-6)Gal(b1-4)GlcNAc(b1-2)Man(a1-6)[Man(a1-3)]Man(b1-4)GlcNAc(b1-4)GlcNAc
# How it was run: as §1
# [10] = target: Neu5Ac(a2-6)Gal(b1-4)GlcNAc(b1-2)[Neu5Ac(a2-6)Gal(b1-4)GlcNAc(b1-4)]Man(a1-3)[GlcNAc(b1-4)][Neu5Ac(a2-6)Gal(b1-4)GlcNAc(b1-2)[Neu5Ac(a2-6)Gal(b1-4)GlcNAc(b1-6)]Man(a1-6)]Man(b1-4)GlcNAc(b1-4)GlcNAc
# How it was run: as §1
# [11] = target: Neu5Ac(a2-6)Gal(b1-4)GlcNAc(b1-2)[Neu5Ac(a2-6)Gal(b1-4)GlcNAc(b1-4)]Man(a1-3)[GlcNAc(b1-4)][Neu5Ac(a2-6)Gal(b1-4)GlcNAc(b1-4)Man(a1-6)]Man(b1-4)GlcNAc(b1-4)GlcNAc
# How it was run: as §1
# [12] = target: Neu5Ac(a2-6)Gal(b1-4)GlcNAc(b1-2)[Neu5Ac(a2-6)Gal(b1-4)GlcNAc(b1-6)]Man(a1-6)[Neu5Ac(a2-6)Gal(b1-4)GlcNAc(b1-2)Man(a1-3)][GlcNAc(b1-4)]Man(b1-4)GlcNAc(b1-4)GlcNAc
# How it was run: as §1
# [13] = target: Neu5Ac(a2-6)Gal(b1-4)GlcNAc(b1-3)Gal(b1-3)GlcNAc
# How it was run: as §1
# [14] = target: Neu5Ac(a2-6)Gal(b1-4)GlcNAc(b1-3)Gal(b1-4)GlcNAc
# How it was run: as §1
# [15] = target: Neu5Ac(a2-6)Gal(b1-4)GlcNAc(b1-3)Gal(b1-4)GlcNAc(b1-2)Man(a1-3)[Neu5Ac(a2-6)Gal(b1-4)GlcNAc(b1-3)Gal(b1-4)GlcNAc(b1-2)Man(a1-6)]GalNAc
# How it was run: as §1
# [16] = target: Neu5Ac(a2-6)Gal(b1-4)GlcNAc(b1-3)Gal(b1-4)GlcNAc(b1-3)Gal(b1-4)GlcNAc
# How it was run: as §1
# [17] = target: Neu5Ac(a2-6)Gal(b1-4)GlcNAc(b1-3)Gal(b1-4)GlcNAc(b1-3)Gal(b1-4)GlcNAc(b1-2)Man(a1-3)[Neu5Ac(a2-6)Gal(b1-4)GlcNAc(b1-3)Gal(b1-4)GlcNAc(b1-3)Gal(b1-4)GlcNAc(b1-2)Man(a1-6)]GalNAc
# How it was run: as §1
# [18] = target: Neu5Ac(a2-6)Gal(b1-4)GlcNAc(b1-3)Gal(b1-4)GlcNAc(b1-3)GalNAc
# How it was run: as §1
# [19] = target: Neu5Ac(a2-6)Gal(b1-4)GlcNAc(b1-3)Gal(b1-4)GlcNAc(b1-3)[Neu5Ac(a2-6)Gal(b1-4)GlcNAc(b1-3)Gal(b1-4)GlcNAc(b1-6)]GalNAc
# How it was run: as §1
# [20] = target: Neu5Ac(a2-6)Gal(b1-4)GlcNAc(b1-3)Gal(b1-4)GlcNAc(b1-6)[Gal(b1-3)]GalNAc
# How it was run: as §1
# [21] = target: Neu5Ac(a2-6)Gal(b1-4)GlcNAc(b1-3)Gal(b1-4)[Fuc(a1-3)]GlcNAc(b1-3)Gal(b1-4)[Fuc(a1-3)]GlcNAc
# How it was run: as §1
# [22] = target: Neu5Ac(a2-6)Gal(b1-4)GlcNAc(b1-3)GalNAc
# How it was run: as §1
# [23] = target: Neu5Ac(a2-6)Gal(b1-4)GlcNAc(b1-3)[Neu5Ac(a2-6)Gal(b1-4)GlcNAc(b1-6)]GalNAc
# How it was run: as §1
# [24] = target: Neu5Ac(a2-6)Gal(b1-4)GlcNAc(b1-6)GalNAc
# How it was run: as §1
# [25] = target: Neu5Ac(a2-6)Gal(b1-4)GlcNAc(b1-6)[Gal(b1-3)GlcNAc(b1-3)]Gal(b1-4)Glc
# How it was run: as §1
# [26] = target: Neu5Ac(a2-6)Gal(b1-4)GlcNAc(b1-6)[Gal(b1-3)]GalNAc
# How it was run: as §1
# [27] = target: Neu5Ac(a2-6)Gal(b1-4)GlcNAc6S
# How it was run: as §1
# [28] = target: Neu5Ac(a2-6)GalNAc
# How it was run: as §1
# [29] = target: Neu5Ac(a2-6)GalNAc(b1-4)GlcNAc
# How it was run: as §1
# [30] = target: Neu5Ac(a2-6)GalNAc(b1-4)GlcNAc6S
# How it was run: as §1
# [31] = target: Neu5Ac(a2-6)GlcNAc(b1-4)GlcNAc
# How it was run: as §1
binder,measurement,setting,value
"Erv41-EDTA (Saccharomyces cerevisiae), Q04651 (protein) MKFLVNVALVFMVVYISYIYAAAPEHHHHHHDYDIPTTENLYFQGAMGYIDQQYVVDSQVRDTVQINMDIYVNTKCDWLQINVRDQTMDRKLVLEELQLEEMPFFIPYDTKVNDINEIITPELDEILGEAIPAEFREKLDTRSFFDESDPNKAHLPEFNGCHVFGSIPVNRVSGELQITAKSLGYVASRKAPLEELKFNHVINEFSFGDFYPYIDNPLDNTAQFNQDEPLTTYVYYTSVVPTLFKKLGAEVDTNQYSVNDYRYLYKDVAAKGDKMPGIFFKYNFEPLSIVVSDVRL",glycan array binding signal (z-score),[1],-0.03
same,glycan array binding signal (z-score),[2],-0.022
same,glycan array binding signal (z-score),[3],-0.568
same,glycan array binding signal (z-score),[4],0.63
same,glycan array binding signal (z-score),[5],1.27
same,glycan array binding signal (z-score),[6],0.291
same,glycan array binding signal (z-score),[7],1.31
same,glycan array binding signal (z-score),[8],-0.992
same,glycan array binding signal (z-score),[9],-0.283
same,glycan array binding signal (z-score),[10],-0.852
same,glycan array binding signal (z-score),[11],-0.319
same,glycan array binding signal (z-score),[12],0.237
same,glycan array binding signal (z-score),[13],0.875
same,glycan array binding signal (z-score),[14],-0.708
same,glycan array binding signal (z-score),[15],-0.499
same,glycan array binding signal (z-score),[16],0.013
same,glycan array binding signal (z-score),[17],2.65
same,glycan array binding signal (z-score),[18],0.271
same,glycan array binding signal (z-score),[19],0.552
same,glycan array binding signal (z-score),[20],0.802
same,glycan array binding signal (z-score),[21],0.965
same,glycan array binding signal (z-score),[22],-0.606
same,glycan array binding signal (z-score),[23],0.711
same,glycan array binding signal (z-score),[24],0.322
same,glycan array binding signal (z-score),[25],-0.507
same,glycan array binding signal (z-score),[26],0.134
same,glycan array binding signal (z-score),[27],-0.865
same,glycan array binding signal (z-score),[28],0.272
same,glycan array binding signal (z-score),[29],-0.572
same,glycan array binding signal (z-score),[30],0.108
same,glycan array binding signal (z-score),[31],0.004

# Quoted from the entries so far (six entries):
binder,measurement,setting,value
"Erv41-EDTA (Saccharomyces cerevisiae), Q04651 (protein) MKFLVNVALVFMVVYISYIYAAAPEHHHHHHDYDIPTTENLYFQGAMGYIDQQYVVDSQVRDTVQINMDIYVNTKCDWLQINVRDQTMDRKLVLEELQLEEMPFFIPYDTKVNDINEIITPELDEILGEAIPAEFREKLDTRSFFDESDPNKAHLPEFNGCHVFGSIPVNRVSGELQITAKSLGYVASRKAPLEELKFNHVINEFSFGDFYPYIDNPLDNTAQFNQDEPLTTYVYYTSVVPTLFKKLGAEVDTNQYSVNDYRYLYKDVAAKGDKMPGIFFKYNFEPLSIVVSDVRL",glycan array binding signal (z-score),[4],0.63
same,glycan array binding signal (z-score),[5],1.27
same,glycan array binding signal (z-score),[6],0.291
same,glycan array binding signal (z-score),[7],1.31
same,glycan array binding signal (z-score),[8],-0.992
same,glycan array binding signal (z-score),[9],-0.283
